Assay results as given in article PMC7202210.
These are yes or no findings as the source states them, for the method shown. Binding seen in cells or lysates may run through a third protein. A result given as binding can be weak or reduced; the word gives no strength.

Protein sequences, listed by entry. Tags and fused reporters are not part of them.
UniProt Q6ZNE5: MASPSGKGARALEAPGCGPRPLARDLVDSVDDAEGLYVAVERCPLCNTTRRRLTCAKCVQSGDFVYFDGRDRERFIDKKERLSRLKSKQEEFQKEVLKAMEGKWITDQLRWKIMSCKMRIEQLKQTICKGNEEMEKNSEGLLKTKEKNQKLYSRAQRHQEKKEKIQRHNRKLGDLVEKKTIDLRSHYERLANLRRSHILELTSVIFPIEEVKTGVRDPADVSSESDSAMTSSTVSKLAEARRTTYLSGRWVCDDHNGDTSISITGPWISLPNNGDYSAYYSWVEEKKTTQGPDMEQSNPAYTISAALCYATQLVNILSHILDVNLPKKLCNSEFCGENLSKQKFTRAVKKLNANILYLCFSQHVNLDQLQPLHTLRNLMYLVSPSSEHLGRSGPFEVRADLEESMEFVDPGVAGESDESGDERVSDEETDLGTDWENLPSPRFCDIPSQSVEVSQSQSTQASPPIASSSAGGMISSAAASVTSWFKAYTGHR
UniProt Q9Y4K3: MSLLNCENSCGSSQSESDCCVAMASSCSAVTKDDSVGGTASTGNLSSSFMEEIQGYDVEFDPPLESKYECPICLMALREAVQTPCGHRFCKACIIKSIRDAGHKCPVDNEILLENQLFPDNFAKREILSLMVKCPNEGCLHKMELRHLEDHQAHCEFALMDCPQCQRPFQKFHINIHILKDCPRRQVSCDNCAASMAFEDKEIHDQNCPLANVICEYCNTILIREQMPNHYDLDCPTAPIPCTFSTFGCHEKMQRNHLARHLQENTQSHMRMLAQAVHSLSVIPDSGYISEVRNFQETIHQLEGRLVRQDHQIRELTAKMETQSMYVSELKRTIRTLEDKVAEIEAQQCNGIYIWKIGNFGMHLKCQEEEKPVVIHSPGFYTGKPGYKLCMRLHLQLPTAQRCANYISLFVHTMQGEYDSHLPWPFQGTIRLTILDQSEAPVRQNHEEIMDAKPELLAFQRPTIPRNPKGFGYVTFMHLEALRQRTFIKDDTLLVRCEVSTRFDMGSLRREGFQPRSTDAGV

Experiments:
Assay in all cases: co-IP
[1] = biological target: GFP-CbpCT4 (Streptococcus pneumoniae TIGR4)
[2] = biological target: 6Myc-Atg14 (human) (UniProt Q6ZNE5)
[3] = biological target: HA-Atg14 (expressed in 293T cells) (human) (UniProt Q6ZNE5)

| Substance | binding [1] | binding [2] | binding [3] |
| --- | --- | --- | --- |
| FLAG-TRAF6 (from UniProt Q9Y4K3 1-522) | no binding |  |  |
| GFP-CbpCT4 (from UniProt A0A0H2UNN3) |  | binds | binds |
| HA-Atg14 (expressed in 293T cells) (from UniProt Q6ZNE5 1-492) | binds |  |  |
| 3Myc-Atg14 (expressed in 293T cells) (from UniProt Q6ZNE5 1-492) | binds |  |  |
| p62-3Myc (from UniProt Q13501 1-440) | binds |  |  |
